Values quoted from earlier work in article PMC7884015 (Journal of Agricultural and Food Chemistry, 2021).

Tested on: honey bees
Details: cited from earlier work

## CN1[C@@H]2CC[C@H]1C[C@@H](OC(=O)C(CO)c1ccccc1)C2 (stereo partly shown) [atropine, Atropine, reference compound]
  LD50: 0.1%
